The values below come from publication PMC10746543, “Design principles for cyclin K molecular glue degraders” (Nature Chemical Biology, 2023).

This test concerns HEK293T cells. The experiment in a line: Drug sensitivity assay (CellTiter-Glo viability) with or without MLN4924 pretreatment. The format is cell-based. As to conditions: Homo sapiens, HEK-293T, 72 h, read-out: Cellular assays EC50 [nM]. The method, then:
HEK293T–Cas9 cells were resuspended at 0.15 × 10^6 ml^−1 treated with DMSO or 100 nM MLN4924 and plated on 384-well plates. After 2 h, the indicated drugs were dispensed with a D300 digital dispenser (Tecan). After 3 days of drug exposure, cell viability was assessed using the CellTiter-Glo luminescent assay (Promega, G7572) on an CLARIOstar Plus, MARS 3.4 (BMG LabTech). Cell viabilities were calculated relative to DMSO controls.
For orientation: In ATP-based viability assays light output follows the ATP content of the culture.

Broadly, the EC50 is the concentration at which the effect is half-maximal.

As for `CCc1cnn2c(NCc3ccc[n+]([O-])c3)cc(N3CCCC[C@H]3CCO)nc12` [Dinaciclib], the EC50 was found to be 17 nM.
